Test results published in paper PMC10614403.
No constants are given. Whether binding was seen depends on the method and setting. For some assays here: In cells and extracts the contact can be indirect. Some entries that bind do so weakly or less than the wild type. For some assays here: Tags and fused reporters may be left off the sequences shown. Values belong to the binder of their own block, whether it stands above or below them.

Tests used:
[1] = target: T1, SAG114 SnRK3.25 fused with the GAL4 binding domain (pGBT9-SAG114) (Arabidopsis thaliana) (UniProt Q8W1D5); assay: two-hybrid; pGAD424-SAG113 (GAL4 activation domain) in PJ69-4α mated with pGBT9-SAG114 (GAL4 binding domain) in PJ69-4A; diploid cells streaked on SD/-Trp/-Leu/-His/-Ade plate
T1 sequence: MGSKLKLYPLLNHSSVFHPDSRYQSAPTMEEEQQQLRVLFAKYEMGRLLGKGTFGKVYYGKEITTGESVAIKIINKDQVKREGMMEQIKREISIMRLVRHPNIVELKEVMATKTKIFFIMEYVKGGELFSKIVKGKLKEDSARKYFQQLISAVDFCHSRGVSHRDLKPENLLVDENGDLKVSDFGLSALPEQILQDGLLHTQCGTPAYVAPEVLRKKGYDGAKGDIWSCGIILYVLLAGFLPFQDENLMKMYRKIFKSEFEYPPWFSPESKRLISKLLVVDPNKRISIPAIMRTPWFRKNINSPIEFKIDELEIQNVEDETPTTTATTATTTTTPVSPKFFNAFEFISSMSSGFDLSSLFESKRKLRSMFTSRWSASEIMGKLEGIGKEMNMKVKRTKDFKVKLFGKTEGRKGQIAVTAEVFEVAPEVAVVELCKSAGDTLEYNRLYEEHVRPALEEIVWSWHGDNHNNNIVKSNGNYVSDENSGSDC

[2] = target: T2, SAG114-YFPC (Arabidopsis thaliana) (UniProt Q8W1D5); assay: split reporter; BiFC of SAG113-YFPN and SAG114-YFPC co-expressed in Arabidopsis mesophyll protoplasts; YFP fluorescence imaged 2 d after infiltration
T2 sequence: T1 sequence

binding [1]: binds
B1: SAG113 PP2C fused with the GAL4 activation domain (pGAD424-SAG113) (enzyme, UniProt Q9FIF5 1-413)
chain: MAEICYENETMMIETTATVVKKATTTTRRRERSSSQAARRRRMEIRRFKFVSGEQEPVFVDGDLQRRRRRESTVAASTSTVFYETAKEVVVLCESLSSTVVALPDPEAYPKYGVASVCGRRREMEDAVAVHPFFSRHQTEYSSTGFHYCGVYDGHGCSHVAMKCRERLHELVREEFEADADWEKSMARSFTRMDMEVVALNADGAAKCRCELQRPDCDAVGSTAVVSVLTPEKIIVANCGDSRAVLCRNGKAIALSSDHKPDRPDELDRIQAAGGRVIYWDGPRVLGVLAMSRAIGDNYLKPYVISRPEVTVTDRANGDDFLILASDGLWDVVSNETACSVVRMCLRGKVNGQVSSSPEREMTGVGAGNVVVGGGDLPDKACEEASLLLTRLALARQSSDNVSVVVVDLRRDT

binding [2]: binds
B2: SAG113-YFPN (enzyme, UniProt Q9FIF5 1-413)
chain: B1 chain
